Here are results for 6 molecules from patent publication US20210238294A1 (JIANGSU HENGRUI MEDICINE, published 2021).

Positions count from the first letter of the chain named. These are yes or no findings as the source states them, for the method shown.

First the molecules themselves.
B1: murine monoclonal antibody 25G7 (antibody, V domains shown)
VH: EVQLVESGGGLVKPGGSLKLSCAASGFTFSDYGMHWVRQAPEKGLEWVAFISSGSSIIYYADIVKGRSTISRDNAKNTLFLQMTSLRSEDTAMYYCTRGNKRGFFDYWGQGTILTVSS
VL: QIVLTQSPALMSASPGEKVTMTCNASSSVSYMYWYQRKPRSSPKPWIYLTSNLASGVPVRFSGSGSGTSYSLTISSMEAEDAATYYCQQWRSNPPMLTFGSGTKLEVK
B2: human-mouse chimeric antibody 25G7-C (antibody, V domains shown)
VH: B1 VH
VL: B1 VL
B3: humanized antibody hu25G7 (with VH-c heavy chain and VL-a light chain) (antibody, human IgG4 S228P, kappa, V domains shown)
VH: B1 VH with K13Q, K19R, E42G, T78S, F80Y, T84N, S88A, M93V, I113L, L114V
VL: EIVLTQSPATLSLSPGERATLSCNASSSVSYMYWYQQKPGQAPRLLIYLTSNLASGIPARFSGSGSGTDFTLTISSLEPEDFAVYYCQQWRSNPPMLTFGGGTKVEIKR
B4: mouse monoclonal antibody 7B10 (antibody, V domains shown)
VH: QVQLQQPGTELLKPGASVSLSCKASGYTFTSYWMHWVKQRPGQGLEWIGLIHPNSDTTKFSENFKTRATLTIDKSSSTAYMKLSSLTSEDSAVYYCAKSKIITTIVARHWYFDVWGTGTTVTVSS
VL: DIVLTQSPPSLAVSLGQRATISCKASQSVDYGGDSYMNWYQQKLGQPPKVLIYAASNLESGIPARFSGSGSGTDFTLNIHPVEEEDVATYYCQHSNENPPTFGGGTKLEIK
B5: human-mouse chimeric antibody 7B10-C (antibody, V domains shown)
VH: B4 VH
VL: B4 VL
B6: humanized antibody hu7B10 (with VH-b heavy chain and VL-b light chain) (antibody, human IgG1, kappa, V domains shown)
VH: EVQLVQSGAEVKKPGASVKVSCKASGYTFTSYWMHWVRQAPGQGLEWMGLIHPNSDTTKFSENFKTRVTMTIDTSISTAYMELSRLRSDDTAVYYCAKSKIITTIVARHWYFDVWGQGTTVTVSS
VL: DIVLTQTPLSLSVTPGQPASISCKASQSVDYGGDSYMNWYLQKPGQPPQLLIYAASNLESGVPDRFSGSGSGTDFTLKISRVEAEDVGVYYCQHSNENPPTFGGGTKVEIKR

For this experiment, the target named is his-tagged rhesus IL-4R recombinant protein (rhesus). The experiment can be described thus: ELISA, plate-coated rhesus IL-4R-his. On the technique in general: An ELISA detects its analyte on a solid surface through an enzyme-linked reagent.
As to B1, the binding entry is “no binding”.
On to B2, for which the binding result is “no binding”.
For the molecule B3, the binding result is “no binding”.
Regarding B4, the binding entry was “no binding”.
On to B5, for which the binding entry was “no binding”.
On to B6, for which the binding entry was “no binding”.
